This passage reports binding results from paper doi:10.1101/2025.09.11.675682.

Chains of the proteins cited; added tags and fusions are not shown. Lines headed by an entry give the natural chain unless they say otherwise; changes in a name come on top.
UniProt Q13094: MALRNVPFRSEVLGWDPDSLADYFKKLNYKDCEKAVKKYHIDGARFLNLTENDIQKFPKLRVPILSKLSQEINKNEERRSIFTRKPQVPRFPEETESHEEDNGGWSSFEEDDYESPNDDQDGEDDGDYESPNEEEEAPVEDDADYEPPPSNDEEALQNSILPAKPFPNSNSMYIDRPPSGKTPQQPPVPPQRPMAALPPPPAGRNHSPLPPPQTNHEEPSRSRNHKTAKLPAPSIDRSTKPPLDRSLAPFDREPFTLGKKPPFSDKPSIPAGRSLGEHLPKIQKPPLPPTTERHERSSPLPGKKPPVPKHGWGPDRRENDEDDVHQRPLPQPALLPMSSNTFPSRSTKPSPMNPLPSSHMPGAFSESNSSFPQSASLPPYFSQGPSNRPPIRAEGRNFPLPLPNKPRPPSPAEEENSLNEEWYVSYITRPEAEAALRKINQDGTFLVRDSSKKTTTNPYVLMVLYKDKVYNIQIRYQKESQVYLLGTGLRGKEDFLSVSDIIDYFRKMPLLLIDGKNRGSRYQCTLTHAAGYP

These are yes or no findings as the source states them, for the method shown.

The target in this assay is His6-3C-Halo-tev-ITK(C96E/T110I)-FLAG. Briefly: ITC; PEAQ-ITC; 5°C; 20 mM Hepes (pH 7.4), 100 mM NaCl, 0.1 mM DTT; SLP-76 4 μM in the cell, Itk 40 μM in the syringe (methods); both purified.

Consider QPPVPPQRPMAALPPP (peptide, UniProt Q13094 185-200) [SLP-76 PRR peptide (aa 185–200), wild type], for which the binding entry is on record as “no binding (tested: 4 μM in the cell, 40 μM in the syringe)”.
